Measured values reported in paper PMC7193638.
No constants are given. Whether binding was seen depends on the method and setting. Some entries that bind do so weakly or less than the wild type.

By UniProt entry, the sequences of proteins in these tests, tags left out.
UniProt O77059: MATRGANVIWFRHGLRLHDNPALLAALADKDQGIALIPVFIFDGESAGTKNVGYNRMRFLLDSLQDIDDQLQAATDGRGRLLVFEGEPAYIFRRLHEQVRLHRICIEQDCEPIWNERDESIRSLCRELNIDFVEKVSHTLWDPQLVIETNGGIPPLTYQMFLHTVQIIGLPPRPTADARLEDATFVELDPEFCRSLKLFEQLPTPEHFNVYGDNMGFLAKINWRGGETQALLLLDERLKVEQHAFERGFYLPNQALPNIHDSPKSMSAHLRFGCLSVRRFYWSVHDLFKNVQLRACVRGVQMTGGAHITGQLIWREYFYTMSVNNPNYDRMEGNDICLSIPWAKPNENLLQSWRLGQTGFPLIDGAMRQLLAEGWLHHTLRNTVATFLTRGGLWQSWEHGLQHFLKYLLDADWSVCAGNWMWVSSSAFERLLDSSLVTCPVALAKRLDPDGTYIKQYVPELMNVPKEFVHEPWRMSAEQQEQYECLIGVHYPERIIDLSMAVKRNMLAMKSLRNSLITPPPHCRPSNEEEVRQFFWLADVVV

Target: Cry of Drosophila melanogaster (DmCry), full length (Drosophila melanogaster) (UniProt O77059)
Test: two-hybrid; UAS-GAL4 drop test with cloned ORFs: mated diploid cells, 10 µl of 10^6 cells/ml per drop, on SD-leu-trp and SD-leu-trp-his-ade plates, 3 days at 30 °C; empty pGBKT7-SfiI and pGADT7-SfiI as negative controls

binding: binds
B1: IscA1 of Drosophila melanogaster (DmIscA1), full length (protein, UniProt Q8T3X9 1-130)
chain: MATRVVATATVRAVKGRKLIPTRAALTLTPAAVLRIKTLLQDKPDMVGLKVGVRQRGCNGLSYTLDYASQKDKLDEEVVQDGVKVFIDKKAQLSLLGTEMDFVESKLSSEFVFNNPNIKGTCGCGESFSM
